Data as given in publication PMC10239507, “Development of allosteric and selective CDK2 inhibitors for contraception with negative cooperativity to cyclin binding” (Nature Communications, 2023).

System: OVCAR-3 cells
Assay: Cytotoxicity assay (Pharmaron)

For `CN[C@@H]1C[C@H]2O[C@@](C)([C@@H]1OC)n1c3ccccc3c3c4c(c5c6ccccc6n2c5c31)C(=O)NC4` [staurosporine], the IC50 was “low nanomolar range”.
